We go through 1 molecule from patent publication US20250289873A1.

Sequences of proteins named here, by UniProt entry; tags and fusion partners are left off. Residues count along the entry.
UniProt Q02985, residues 19-330: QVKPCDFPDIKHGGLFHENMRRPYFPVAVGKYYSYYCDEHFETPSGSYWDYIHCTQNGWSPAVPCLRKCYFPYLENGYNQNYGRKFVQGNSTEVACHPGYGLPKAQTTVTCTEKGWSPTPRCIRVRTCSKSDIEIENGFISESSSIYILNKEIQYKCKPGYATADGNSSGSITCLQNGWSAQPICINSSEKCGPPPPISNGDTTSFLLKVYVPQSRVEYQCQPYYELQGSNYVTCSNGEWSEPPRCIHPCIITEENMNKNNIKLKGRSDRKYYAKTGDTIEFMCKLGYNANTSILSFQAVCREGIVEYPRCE

These are yes or no findings as the source states them, for the method shown. Some results given as binding are weak or reduced against the parent protein; the word gives no strength.

The target in assay [1] is human CFHL3-His (ATX-P-58) (human) (UniProt Q02985). Kind of assay: Carterra LSA biosensor, mAb printed on chip, human CFHL3-His at 550 nM.
The target in assay [2] is Human CFHL1-Y402H-His (ATX-P-421) (human). Put plainly: Carterra LSA biosensor, mAb printed on chip, human CFHL1-Y402H-His at 380 nM.

B1: ATX-P-581 (antibody, human IgG1, kappa, N297A, V domains shown)
VH: QVQLQQSGPGLVKPSQTLSLTCAISGDSVSSNNAAWNWIRQSPSRGLEWLGRTYYRSKWYNAYAVSVKSRIIINPDTSRNQFSLQLNSVTPEDTAVYYCAREGGYIYGLDQWGQGTLVTVSS
VL: DIQMTQSPSSVSASVGDRVTITCRASQGVNNWLAWYQQKPGKAPKLLIHAASSLLSGVPSRFSGSGSGTDFTLTITSLQPEDFATYYCQQANSFPITFGQGTRLEIKR
Consider B1, for which the binding result in assay [1] and in assay [2] was “binds” in each case.
